Results as given in article PMC12622526.
Results are given in words; binding and its absence hold for the method and conditions named. Binding seen in cells or lysates may run through a third protein. Some binding calls cover weakened binding; strength is not graded here. For part of these data: Where a sequence is shown, tags or fusion partners need not be part of it. Values belong to the substance of their own block, whether it stands above or below them.

The chains behind the UniProt entries cited, without tags or fusion partners.
UniProt P60953: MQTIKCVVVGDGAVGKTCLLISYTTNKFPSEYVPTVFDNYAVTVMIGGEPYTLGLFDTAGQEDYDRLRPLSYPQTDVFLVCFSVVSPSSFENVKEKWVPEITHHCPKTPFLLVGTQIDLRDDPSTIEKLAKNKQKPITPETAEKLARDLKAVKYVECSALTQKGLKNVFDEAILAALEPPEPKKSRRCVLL
UniProt Q15811: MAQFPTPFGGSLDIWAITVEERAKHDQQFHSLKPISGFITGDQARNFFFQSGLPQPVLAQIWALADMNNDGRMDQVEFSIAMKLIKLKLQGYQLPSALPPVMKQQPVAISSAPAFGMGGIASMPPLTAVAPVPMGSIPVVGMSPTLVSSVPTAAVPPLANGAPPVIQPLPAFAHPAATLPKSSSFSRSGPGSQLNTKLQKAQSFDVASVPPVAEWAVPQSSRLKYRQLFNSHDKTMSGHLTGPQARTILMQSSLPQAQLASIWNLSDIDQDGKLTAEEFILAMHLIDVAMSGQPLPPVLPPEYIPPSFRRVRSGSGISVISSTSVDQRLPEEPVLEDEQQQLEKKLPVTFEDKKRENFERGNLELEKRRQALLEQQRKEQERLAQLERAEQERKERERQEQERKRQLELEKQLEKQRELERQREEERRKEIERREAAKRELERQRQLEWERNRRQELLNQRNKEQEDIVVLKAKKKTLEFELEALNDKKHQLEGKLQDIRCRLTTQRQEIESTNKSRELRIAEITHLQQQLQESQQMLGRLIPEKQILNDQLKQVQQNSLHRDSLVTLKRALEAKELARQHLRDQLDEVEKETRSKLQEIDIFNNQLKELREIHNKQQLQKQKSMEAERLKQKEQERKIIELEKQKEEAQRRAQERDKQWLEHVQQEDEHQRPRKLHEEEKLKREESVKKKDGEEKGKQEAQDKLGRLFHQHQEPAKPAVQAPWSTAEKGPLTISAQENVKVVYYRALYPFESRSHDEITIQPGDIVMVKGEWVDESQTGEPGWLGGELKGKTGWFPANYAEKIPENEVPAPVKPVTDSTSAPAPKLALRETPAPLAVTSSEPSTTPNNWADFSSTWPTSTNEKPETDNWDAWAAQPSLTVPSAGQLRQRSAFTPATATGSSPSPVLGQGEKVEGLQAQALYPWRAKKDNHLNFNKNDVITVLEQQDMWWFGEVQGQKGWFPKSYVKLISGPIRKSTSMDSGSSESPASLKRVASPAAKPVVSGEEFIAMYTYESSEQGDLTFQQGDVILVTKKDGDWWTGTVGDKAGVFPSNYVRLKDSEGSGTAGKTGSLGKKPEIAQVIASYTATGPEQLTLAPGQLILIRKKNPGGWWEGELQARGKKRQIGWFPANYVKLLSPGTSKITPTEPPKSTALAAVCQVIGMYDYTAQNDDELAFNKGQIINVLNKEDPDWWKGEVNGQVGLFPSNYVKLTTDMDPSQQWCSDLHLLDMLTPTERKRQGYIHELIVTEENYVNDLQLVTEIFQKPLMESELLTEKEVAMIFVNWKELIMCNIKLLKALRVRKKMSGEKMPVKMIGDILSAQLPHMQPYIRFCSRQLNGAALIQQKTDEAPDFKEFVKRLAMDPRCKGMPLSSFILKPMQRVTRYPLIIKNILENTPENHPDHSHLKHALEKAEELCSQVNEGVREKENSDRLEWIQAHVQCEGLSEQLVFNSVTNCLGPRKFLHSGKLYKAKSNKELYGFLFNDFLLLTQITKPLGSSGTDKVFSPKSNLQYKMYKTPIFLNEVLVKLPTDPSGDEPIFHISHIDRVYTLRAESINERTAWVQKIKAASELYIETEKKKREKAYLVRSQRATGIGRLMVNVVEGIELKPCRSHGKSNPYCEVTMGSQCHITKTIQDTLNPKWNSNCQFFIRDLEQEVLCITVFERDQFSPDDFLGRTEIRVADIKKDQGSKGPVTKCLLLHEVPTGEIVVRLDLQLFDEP

Experiments:
[1] = molecular target: T1, scCOA4‐MYC (Saccharomyces cerevisiae‐derived COA4) (S. cerevisiae) (UniProt Q05809); assay: co-IP; IP from A549 cells transfected with scCOA4‐MYC, blot for CDC42
T1 sequence: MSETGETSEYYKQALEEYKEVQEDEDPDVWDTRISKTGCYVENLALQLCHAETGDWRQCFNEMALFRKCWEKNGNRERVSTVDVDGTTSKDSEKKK

[2] = molecular target: T1, scCOA4‐MYC (Saccharomyces cerevisiae‐derived COA4) (S. cerevisiae); assay: proximity ligation; in situ PLA in A549 cells expressing scCOA4
[3] = molecular target: COA4 (cytochrome c oxidase assembly factor 4), endogenous (human) (UniProt Q9NYJ1); assay: co-IP; endogenous Co‐IP in A549 and H23 cells
[4] = molecular target: COA4 (cytochrome c oxidase assembly factor 4), endogenous (human) (UniProt Q9NYJ1); assay: proximity ligation; in situ Duolink PLA (Sigma–Aldrich DUO92101) in A549, 293T and H23 cells
[5] = molecular target: Flag‐COA4 (human cytochrome c oxidase assembly factor 4), transfected in 293T cells (human) (UniProt Q9NYJ1); assay: co-IP; 293T cells co‐transfected with Flag‐COA4 and HA‐CDC42; Pierce IP Lysis Buffer with protease and phosphatase inhibitors
[6] = molecular target: CDC42, endogenous (human) (UniProt P60953); assay: co-IP; Co‐IP of CDC42 and ITSN1 in cells with COA4 overexpression or knockdown (Figure S10C)

binding [1]: binds | binding [2]: binds | binding [3]: binds | binding [4]: binds
Substance: CDC42, endogenous (from UniProt P60953 1-191)

binding [5]: binds
Substance: HA‐CDC42 (from UniProt P60953 1-191)

binding [6]: binds
Substance: ITSN1 (from UniProt Q15811 1-1721)
